In PMC5617202, “Structural and functional insights into the reaction specificity of catalase-related hydroperoxide lyase: A shift from lyase activity to allene oxide synthase by site-directed mutagenesis” (PLoS ONE, 2017):
These are yes or no findings as the source states them, for the method shown. Tags and fused reporters may be left off the sequences shown.

Biological target: Plexaura homomalla allene oxide synthase-lipoxygenase fusion protein (cAOS-LOX) (Plexaura homomalla) (UniProt O16025)
Assay: SEC; Superdex 200 Increase 10/300 GL, 50 mM Tris pH 8.0, 150 mM NaCl, 0.7 mL/min, read at 406 and 280 nm; 10-15 ug of a mutant or about 50 ug of wt cHPL; retention times compared with mass standards; both purified

binding: no binding
B1: Plexaura homomalla allene oxide synthase-lipoxygenase fusion protein (cAOS-LOX) (protein, UniProt O16025 1-1066)
chain: MTWKNFGFEIFGEKYGQEELEKRIKDEHTPPPDSPVFGGLKLKLKKEKFKTLFTLGTTLKGFRRATHTVGTGGIGEITIVNDPKFPEHEFFTAGRTFPARLRHANLKYPDDAGADARSFSIKFADSDSDGPLDIVMNTGEANIFWNSPSLEDFVPVEEGDAAEEYVYKNPYYYYNLVEALRRAPDTFAHLYYYSQVTMPFKAKDGKVRYCRYRALPGDVDIKEEDESGRLTEEEQRKIWIFSRHENEKRPDDYLRKEYVERLQKGPVNYRLQIQIHEASPDDTATIFHAGILWDKETHPWFDLAKVSIKTPLSPDVLEKTAFNIANQPASLGLLEAKSPEDYNSIGELRVAVYTWVQHLRKLKIGSLVPAGQNAIYNVEVETGDREHAGTDATITIRITGAKGRTDYLKLDKWFHNDFEAGSKEQYTVQGFDVGDIQLIELHSDGGGYWSGDPDWFVNRVIIISSTQDRVYSFPCFRWVIKDMVLFPGEATLPFNEVPAIVSEQRQKELEQRKLTYQWDYVSDDMPGNIKAKTHDDLPRDVQFTDEKSRSYQESRKAALVNLGIGSLFTMFENWDSYDDYHILYRNWILGGTPNMADRWHEDRWFGYQFLNGANPVILTRCDALPSNFPVTNEHVNASLDRGKNLDEEIKDGHIYIVDFKVLVGAKSYGGPVLEDIGYKVPDHLKHDEADIRYCAAPLALFYVNKLGHLMPIAIQINQEPGPENPIWTPHEENEHDWMMAKFWLGVAESNFHQLNTHLLRTHLTTESFALSTWRNLASAHPVFKLLQPHIYGVLAIDTIGRKELIGSGGIVDQSLSLGGGGHVTFMEKCFKEVNLQDYHLPNALKKRGVDDPSKLPGFYYRDDGLALWEAIETFIGEIIAIFYKNDDDVKRDNEIQSWIYDVHKNGWRVNPGHQDHGVPASFESREQLKEVLTSLVFTFSCQHAAVNFSQKDHYGFTPNAPAVLRHPPPKKKGEATLQSILSTLPSKSQAAKAIATVYILTKFSEDERYLGNYSATAWEDKDALDAINRFQDKLEDISKKIKQRNENLEVPYIYLLPERIPNGTAI
